US20250163147A1
These are yes or no findings as the source states them, for the method shown. Some binding calls cover weakened binding; strength is not graded here. Sequences can lack the tags named with a protein.

Legend:
[1] = target: T1, human DCIR-Fc (human) (UniProt Q9UMR7); assay: ELISA, antibody coated on plate (10 µg/ml), DCIR-Fc 5 µg/ml in solution, detected with peroxidase anti-human Fc
T1 sequence (looked up): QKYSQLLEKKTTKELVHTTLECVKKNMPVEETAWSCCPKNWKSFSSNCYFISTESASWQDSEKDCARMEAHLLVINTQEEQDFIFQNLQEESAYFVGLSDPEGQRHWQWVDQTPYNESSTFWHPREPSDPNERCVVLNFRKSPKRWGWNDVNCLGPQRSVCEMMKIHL

[2] = target: T2, mouse DCIR-Fc (mouse) (UniProt Q9QZ15); assay: as above
T2 sequence (looked up): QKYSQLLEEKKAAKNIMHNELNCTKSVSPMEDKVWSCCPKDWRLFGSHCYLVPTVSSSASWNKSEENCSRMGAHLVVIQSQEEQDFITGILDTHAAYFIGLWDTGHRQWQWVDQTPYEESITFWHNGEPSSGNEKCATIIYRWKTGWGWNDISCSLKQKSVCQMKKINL

binding [1]: binds
binding [2]: binds
B1: anti-DCIR antagonist antibody (5A3D8) (antibody, V domains shown)
VH: EVQLQQSGPELVKPGASVKMSCKASGYTFTSYVMHWVKQKPGQGLEWIGYINPYNDGTKYNEKFKGKATLTSDKSSSTAYMELSSLTSEDYAVYYCARSYKRYDWYPRWGAGTTV
VL: DIVMTQSQKFMSTSVGDRVSVTCKASQNVGTNVAWYQQKPGQSPKALIYSASYRYSGVPDRFTGSGSGTDFTLTISNVQSEDLAEYFCQQYNSYPLTFGGGTKLEIK
